# Reference: article PMC6342742
# B1: His-MAPK14 (protein, UniProt Q6Z437 1-370)
# chain: MAIMVDPPNGMGNQGKYYYSMWQTLFEIDTKYVPIKPIGRGAYGIVCSSINRETNEKVAIKKIHNVFDNRVDALRTLRELKLLRHLRHENVIALKDIMMPVHRRSFKDVYLVYELMDTDLHQIIKSPQGLSNDHCQYFLFQLLRGLKYLHSAEILHRDLKPGNLLVNANCDLKICDFGLARTNSSKGQFMTEYVVTRWYRAPELLLCCDNYGTSIDVWSVGCIFAELLGRKPIFPGTECLNQLKLIVNVLGTMSESDLEFIDNPKARRYIKSLPYTPGVPLASMYPHAHPLAIDLLQKMLIFDPTKRISVTEALEHPYMSPLYDPSANPPAQVPIDLDIDENISADMIREMMWHEMLHYHPEVVAAMSAR
# B2: His-MAPK7 (protein, UniProt Q5Z859 1-369)
# chain: MAMMVDPPNGMGNQGKHYYTMWQTLFEIDTKYVPIKPIGRGAYGIVCSSINRATNEKVAIKKINNVFDNRVDALRTLRELKLLRHLRHENVIALKDIMMPVHRRSFKDVYLVYELMDTDLHQIIKSSQPLSNDHCQYFLFQLLRGLKYLHSAGILHRDLKPGNLLVNANCDLKICDFGLARTNNTKGQFMTEYVVTRWYRAPELLLCCDNYGTSIDVWSVGCIFAELLGRKPIFPGTECLNQLKLIVNVLGTMSEADIEFIDNPKARKYIKTLPYTPGIPLTSMYPQAHPLAIDLLQKMLVFDPSKRISVTEALEHPYMSPLYDPSANPPAQVPIDLDIDENLGVDMIREMMWQEMLHYHPEVVAGVNM
# B3: OsMAPK4 (protein, UniProt Q336X9 1-376)
# chain: MDSSSGGAGGGGGAQIKGMGTHGGRYVLYNVYGNFFEVSSKYAPPIRPIGRGAYGIVCAAVNSENGEEVAIKKIGNAFDNHIDAKRTLREIKLLRHMDHENIIAIKDIIRPPRRDNFNDVYIVSELMDTDLHQIIRSNQPLTDDHCQYFLYQLLRGLKYVHSANVLHRDLKPSNLFLNANCDLKIADFGLARTTTETDLMTEYVVTRWYRAPELLLNCSQYTAAIDVWSVGCILGEIVTRQPLFPGRDYIQQLKLITELIGSPDDSSLGFLRSDNARRYMKQLPQYPRQDFRLRFRNMSAGAVDLLEKMLVFDPSRRITVDEALHHPYLASLHDINEEPTCPAPFSFDFEQPSFTEEHIKELIWRESLAFNPDPPY
# B4: OsMAPK3 (protein, UniProt Q10N20 1-369)
# chain: MDGAPVAEFRPTMTHGGRYLLYDIFGNKFEVTNKYQPPIMPIGRGAYGIVCSVMNFETREMVAIKKIANAFNNDMDAKRTLREIKLLRHLDHENIIGIRDVIPPPIPQAFNDVYIATELMDTDLHHIIRSNQELSEEHCQYFLYQILRGLKYIHSANVIHRDLKPSNLLLNANCDLKICDFGLARPSSESDMMTEYVVTRWYRAPELLLNSTDYSAAIDVWSVGCIFMELINRQPLFPGRDHMHQMRLITEVIGTPTDDELGFIRNEDARKYMRHLPQYPRRTFASMFPRVQPAALDLIERMLTFNPLQRITVEEALDHPYLERLHDIADEPICLEPFSFDFEQKALNEDQMKQLIFNEAIEMNPNIRY
# B5: OsMAPK16 (protein, UniProt Q53N72 1-498)
# chain: MDFFTEYGEGNRYKIEEVIGKGSYGVVCSALDTHTGEKVAIKKINDIFEHVSDATRILREIKLLRLLRHPDIVEIKHILLPPSRREFKDIYVVFELMESDLHQVIKANDDLTPEHYQFFLYQLLRGLKYIHTANVFHRDLKPKNILANADCKLKICDFGLARVAFSDTPTAIFWTDYVATRWYRAPELCGSFFSKYTPAIDIWSIGCIFAELLTGKPLFPGKNVVHQLDIITDLLGTPSTEAISRIRNEKARRYLSSMRRKKPIPFTQKFPNADPLALRLLERMLSFEPKDRPNAEEALADPYFRNIANVDREPSAQPVTKLEFEFERRRITKEDIRELIYRDILEYHPNMLREYLEGTESAGFMYPSAVDHFKKQFAYLEEHYAKGSTAAPPERQHNSLPRPSVLYSDDRPQNTANIAEDLSKCVLGDNTQKMHQGSASVCANRVPQGGAARPGKVVGSALRYGNCSTSTAEQYEHRRTDRNPALATNTVSPRGSYP
# B6: OsMAPK20–5 (protein, UniProt Q67C40 1-569)
# chain: MDFFSEYGDSSRYKIQEIVGKGSYGVVCSAIDQHTGDKVAIKKIHNIFEHLSDAARILREIKLLRLLRHPDIVEIKHIMLPPSRRDFKDIYVVFELMDTDLHQVIKANDDLTKEHHQFFLYQMLRALKYIHTANVYHRDLKPKNILANANCKLKICDFGLARVAFNDTPTTVFWTDYVATRWYRAPELCGSFFSKYSPAIDTWSIGCIFAEILTGKPLFPGKNVVHQLDLMTDLLGTPSMDAISRIRNDKARRYLSSMRRKQPVPFSEKFPNVDPLALKLLQRLLAFDPKDRPTAEEALADPYFKGLAKVEREPSCQPISKMEFEFERRKVTKDDIKELIFREILEYHPQLLKDYMNGSENTSFLYPSAVDNFRRQFAILEENGGKSGALDRKHVSLPRATTVHSTSIPPNEGLDATSQVTQRIPTARPGRTVGPVLPFENPGAADPHSARRVVRNPMVPPAAANKSGYSYNLKSDYSDRQHQEELEKDRVQYRPAQHLMDAKVAPDTAPDIRSSQYYFTRSAPRTDLTDRAALQGSMLYGIAPFNGIAAVAGGYSKVGAVQYGVSRMY
# B7: OsMAPK17–1 (protein, UniProt Q5Z9J0 1-580)
# chain: MGGGGTLVDGFRRLFHRRTASGSNQSSNAGEEAASSDLEVADDPDLVALRSIRIRVPKRKMPLPVESHKKNTVEMEFFTEYGEASQYQIQEVIGKGSYGVVAAAVDTRTGERVAIKKINDVFEHVSDATRILREIKLLRLLRHPDIVEIKHIMLPPSRREFQDIYVVFELMESDLHQVIRANDDLTPEHYQFFLYQLLRALKYIHAANVFHRDLKPKNILANSDCKLKICDFGLARASFNDAPSAIFWTDYVATRWYRAPELCGSFFSKYTPAIDIWSIGCIFAELLTGRPLFPGKNVVHQLDIITDLLGTPSSETLSRIRNEKARRYLSTMRKKHAVPFSQKFRNTDPLALRLLERLLAFDPKDRSSAEEALADPYFASLANVEREPSRHPISKLEFEFERRKLTKDDVRELIYREILEYHPQMLQEYMKGGEQISFLYPSGVDRFKRQFAHLEENYSKGERGSPLQRKHASLPRERVGVSKDGYNQQNTNDQERSADSVARTTVSPPMSQDAQQHGSAGQNGVTSTDLSSRSYLKSASISASKCVAVKDNKEPEDDYISEEMEGSVDGLSEQVSRMHS
# B8: MAPK14 (protein, UniProt Q6Z437 1-370)
# chain: B1 chain
# B9: MAPK7 (protein, UniProt Q5Z859 1-369)
# chain: B2 chain
# Target: GST-MKK3 (rice (Oryza sativa L.))
# Test: pull-down; GST-fusion protein from E. coli BL21 on Glutathione Sepharose 4B beads (4 °C, 1 h, washed three times with lysis buffer); His-fusion protein added, 4 °C overnight; washed, eluted with reduced glutathione; immunoblot with anti-His
row,binding,Binder
1,binds,B1
2,binds,B2

# Target: MKK10–2 (rice (Oryza sativa L., cultivar ZH11))
# Test: two-hybrid; Matchmaker Gold system, Y2HGold yeast; bait in pGBKT7, prey in pGADT7; co-transformants on SD/-Leu/-Trp, then streaked on quadruple-dropout medium (-Ade/-His/-Leu/-Trp) with 200 ng/mL Aureobasidin A; growth read
row,binding,Binder
1,no binding,B3
2,no binding,B4
3,no binding,B5
4,no binding,B6
5,no binding,B7
6,no binding,B8
7,no binding,B9

# Target: MKK3 (rice (Oryza sativa L., cultivar ZH11))
# Test: as above
row,binding,Binder
1,binds,B8
2,binds,B9

# These are yes or no findings as the source states them, for the method shown. For some assays here: Binding calls can cover weak binding; strength is not graded here. For some assays here: In cells and extracts the contact can be indirect. For some assays here: Tags and fused reporters may be left off the sequences shown.
